We go through one molecule from US10023708B2, “Method of producing a delivery device” (PTT HOLDING APS, priority 2011, dated 2018).

SMILES strings stand for the structures.

The nature of this data set: Loading of Ceragenin CSA-13 into IPN discs and its release. To be noted: IPN discs about 20% PHEMA; EtOH + CO2, about 300 bars, about 75° C., 21 hours 50 minutes. Here is the method: 6 IPN discs (010 mm, thickness 1-2 mm) obtained from Example 1 and with about 20% PHEMA (total mass about 1.3266 g) was loaded with about 500 mg Ceragenin CSA-13. The loading solvent was 2.00 ml 99.8% EtOH supplied by Merck (Germany) and N48 CO2 (supplied by Air Liquid Denmark A/S (Denmark)). The Ceragenin CSA-13 was initially dissolved in the 2.00 ml 99.8% EtOH and injected into a reactor of 16 ml comprising the discs. The pressure was raised to about 300 bars by injecting CO2 and the temperature was raised to about 75° C. The discs were treated at this pressure and temperature under stirring (1100 rpm) for 21 hours and 50 minutes, where after the pressure was reduced, the discs were withdrawn and allowed to cool down.

As to `CCCCCCCCNCCC[C@@H](C)[C@H]1CC[C@H]2[C@@H]3[C@H](OCCCN)C[C@@H]4C[C@H](OCCCN)CC[C@]4(C)[C@H]3C[C@H](OCCCN)[C@]12C` [Ceragenin CSA-13], the “amount loaded into the discs” value is on record as “a large amount”.
